In the supplement of paper PMC10373366:
Counter-ions that a name gives are not always drawn. The list shows a part of the results. Single values are uncertain, as repeats are few or missing.

System: patient-derived ovarian cancer cells (PDC)
Assay: cell growth inhibition ratio vs untreated control (CCK8); higher = stronger inhibition of cell viability
Details: 10 µM; 48 h
Procedure: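 Natural product library (Topscience) screened at 10 µM final concentration for 48 h on ovarian cancer A2780 cells and patient-derived ovarian cancer cells (PDC) in 96-well plates; viability read by CCK8 and reported as inhibition ratio (%) relative to untreated control. Single-dose primary screen.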

SMILES	cell growth inhibition ratio
C[C@]12CCC(=O)C=C1CC[C@@H]1[C@@H]2[C@@H](O)C[C@@]2(C)[C@H]1CC[C@]2(O)C(=O)CO [Hydrocortisone]	-5.36%
CCOC(=O)c1cc(O)c(O)c(O)c1 [Ethyl gallate]	9.65%
COc1cc2c(cc1CC=C(C)C)C(=O)C[C@@H](c1ccc(O)cc1)O2 [Bavachinin]	6.89%
C=C1CC[C@H](O)C/C1=C/C=C1\CCC[C@]2(C)[C@@H]([C@H](C)/C=C/[C@H](C)C(C)C)CC[C@@H]12 [Vitamin D2]	16.1%
C[C@H]1CC[C@@]2(OC1)O[C@H]1C[C@H]3[C@@H]4CC[C@@H]5C[C@@H](O[C@@H]6O[C@H](CO)[C@H](O)[C@H](O)[C@H]6O[C@@H]6O[C@H](CO)[C@@H](O)[C@H](O)[C@H]6O)CC[C@]5(C)[C@H]4CC[C@]3(C)[C@H]1[C@@H]2C [Timosaponin AIII]	87.6%
O=C(O)CCCCCCCC(O)C(O)CCCCCCO (centres undefined) [Aleuritic Acid]	-12.5%
CC(C)(S)[C@@H](N)C(=O)O [Artamine]	12.6%
CC(=O)N[C@H]1[C@H]([C@H](O)[C@H](O)CO)OC(O)(C(=O)O)C[C@@H]1O (some centres undefined) [N-Acetylneuraminic acid]	-0.261%
COc1ccc(-c2oc3c(CC=C(C)C)c(O[C@@H]4C[C@H](CO)[C@@H](O)[C@H](O)[C@H]4O)cc(O)c3c(=O)c2O[C@@H]2O[C@@H](C)[C@H](O)[C@@H](O)[C@H]2O[C@@H]2O[C@H](CO)[C@@H](O)[C@H](O)[C@H]2O)cc1 [Epimedin A]	0.484%
CC[C@H](C)[C@H](N)C1=N[C@H](C(=O)N[C@@H](CC(C)C)C(=O)N[C@H](CCC(=O)O)C(=O)N[C@H](C(=O)N[C@H]2CCCCNC(=O)[C@H](CC(N)=O)NC(=O)[C@@H](CC(=O)O)NC(=O)[C@H](Cc3cnc[nH]3)NC(=O)[C@@H](Cc3ccccc3)NC(=O)[C@H]([C@@H](C)CC)NC(=O)[C@@H](CCCN)NC2=O)[C@@H](C)CC)CS1 [Bacitracin]	-19.2%
Oc1cc(O)c2c(c1)O[C@H](c1ccc(O)c(O)c1)[C@H](O)C2 [Epicatechin]	-22.5%
COc1c(O)cc2oc3cc(O)c(CC=C(C)C)c(O)c3c(=O)c2c1CC=C(C)C [Mangostin]	6.2%
Cc1nc(C)c(C)nc1C [Ligustrazine hydrochloride]	0.8%
CC1(C)CC[C@]2(C)CC[C@]3(C)C(=CC[C@@H]4[C@@]5(C)CC[C@@H](O)[C@](C)(C(=O)O)[C@@H]5CC[C@]43C)[C@@H]2C1	5.6%
CC[C@H](C)[C@H](N)C(=O)O [isoleucine]	-1.82%
C[C@@H]1C(=O)O[C@H](C)[C@H]1C[C@@H](O)[C@](C)(O)[C@H]1CC[C@@]2(O)C3=CC(=O)[C@@H]4C[C@@H](O)[C@@H](O)C[C@]4(C)[C@H]3CC[C@]12C [Cyasterone]	-11.6%
CC(=O)OCC(=O)[C@@]1(O)CC[C@H]2[C@@H]3CCC4=CC(=O)C=C[C@]4(C)[C@@]3(Cl)[C@@H](Cl)C[C@@]21C [Dichlorisone Acetate]	4.41%
O=c1[nH]cnc2nc[nH]c12 [6-Hydroxypurine]	-22.6%
COc1cc(C2Oc3cc([C@H]4Oc5cc(O)cc(O)c5C(=O)[C@@H]4O)ccc3OC2CO)ccc1O (some centres undefined) [Silibinin]	-2.63%
COC(=O)c1cc(O)c(O)c(O)c1 [Methyl gallate]	5.64%

SMILES	cell growth inhibition ratio
Cc1ncc(CO)c(CO)c1O [Pyridoxine hydrochloride]	14.2%
C[n+]1cccc(C(=O)[O-])c1 [Trigonelline hydrochloride]	-3.3%
COc1c(O)cc2occ(-c3ccc(O)cc3)c(=O)c2c1O [Tectorigenin]	0.634%
N[C@@H](CCC(=O)N[C@@H](CS)C(=O)NCC(=O)O)C(=O)O [Glutathione]	9.47%
CC(C)=CCC[C@](C)(O[C@@H]1O[C@H](CO[C@@H]2OC[C@@H](O)[C@H](O)[C@H]2O)[C@@H](O)[C@H](O)[C@H]1O)[C@H]1CC[C@]2(C)[C@@H]1[C@H](O)C[C@@H]1[C@@]3(C)CC[C@H](O[C@@H]4O[C@H](CO)[C@@H](O)[C@H](O)[C@H]4O[C@@H]4O[C@H](CO)[C@@H](O)[C@H](O)[C@H]4O)C(C)(C)[C@@H]3CC[C@]12C [Ginsenoside Rb3]	-1.51%
Oc1cc(O)c2c(c1)O[C@H](c1ccc(O)c(O)c1)[C@@H](O)C2 [Cianidanol]	2.54%
CC[C@@H]1/C=C(\C)C[C@H](C)C[C@H](OC)[C@H]2O[C@@](O)(C(=O)C(=O)N3CCCC[C@H]3C(=O)O[C@H](/C(C)=C/[C@@H]3CC[C@@H](O)[C@H](OC)C3)[C@H](C)[C@@H](O)CC1=O)[C@H](C)C[C@@H]2OC [Ascomycin (FK520)]	52.9%
COc1cc2c(=O)c(-c3ccc(O)cc3)coc2cc1O[C@@H]1O[C@H](CO)[C@@H](O)[C@H](O)[C@H]1O [Glycitin]	8.45%
CC[C@H](/C=C/[C@@H](C)[C@H]1CC[C@H]2[C@@H]3CC=C4C[C@@H](O)CC[C@]4(C)[C@H]3CC[C@]12C)C(C)C [Stigmasterol]	-7.76%
COc1ccc(-c2oc3cc(O)cc(O)c3c(=O)c2O)cc1 [kaempferide]	18.9%
COc1cc(C(=O)O)cc(OC)c1O [Syringic acid]	5.84%
COc1c2c(cc3oc(C)cc(=O)c13)OC(C(C)(C)O[C@@H]1O[C@H](CO)[C@@H](O)[C@H](O)[C@H]1O)C2 (some centres undefined) [5-O-Methylvisammioside]	5.37%
CC1(C)CC[C@]2(C(=O)O)CC[C@]3(C)C(=CC[C@@H]4[C@@]5(C)C[C@@H](O)[C@H](O)C(C)(C)[C@@H]5CC[C@]43C)[C@@H]2C1 [Maslinic acid]	4.45%
COC(=O)C1=CO[C@@H](O[C@@H]2O[C@H](CO)[C@@H](O)[C@H](O)[C@H]2O)[C@@H]2[C@H](C)O[C@@H](O)C[C@H]12 [Morroniside]	-7.73%
CC1=C(/C=C/C(C)=C/C=C/C(C)=C/C=C/C=C(C)/C=C/C=C(C)/C=C/C2=C(C)C(=O)[C@@H](O)CC2(C)C)C(C)(C)C[C@H](O)C1=O [Astaxanthin]	23%
O=C([O-])c1cc(=O)[nH]c(=O)[nH]1.O=C([O-])c1cc(=O)[nH]c(=O)[nH]1.[Zn+2]	2.24%
O=C(O)c1cc(O)c(O)c(O)c1 [Gallic acid]	-3.9%
O=P(O)(O)O[C@H]1[C@H](OP(=O)(O)O)[C@@H](OP(=O)(O)O)[C@H](OP(=O)(O)O)[C@@H](OP(=O)(O)O)[C@H]1OP(=O)(O)O [Phytic acid]	4.32%
C[C@H]1[C@H](C)CC[C@]2(C(=O)O)CC[C@]3(C)C(=CC[C@@H]4[C@@]5(C)C[C@@H](O)[C@H](O)[C@@](C)(CO)[C@@H]5CC[C@]43C)[C@H]12 [Asiatic acid]	-12.2%

Part of the list above, with bars between the fields.
SMILES | cell growth inhibition ratio
CC(=O)N[C@H]1[C@H]([C@H](O)[C@H](O)CO)OC(O)(C(=O)O)C[C@@H]1O (some centres undefined) [N-Acetylneuraminic acid] | -0.261%
Oc1cc(O)c2c(c1)O[C@H](c1ccc(O)c(O)c1)[C@H](O)C2 [Epicatechin] | -22.5%
CC(=O)OCC(=O)[C@@]1(O)CC[C@H]2[C@@H]3CCC4=CC(=O)C=C[C@]4(C)[C@@]3(Cl)[C@@H](Cl)C[C@@]21C [Dichlorisone Acetate] | 4.41%
O=c1[nH]cnc2nc[nH]c12 [6-Hydroxypurine] | -22.6%
Cc1ncc(CO)c(CO)c1O [Pyridoxine hydrochloride] | 14.2%
N[C@@H](CCC(=O)N[C@@H](CS)C(=O)NCC(=O)O)C(=O)O [Glutathione] | 9.47%
CC[C@@H]1/C=C(\C)C[C@H](C)C[C@H](OC)[C@H]2O[C@@](O)(C(=O)C(=O)N3CCCC[C@H]3C(=O)O[C@H](/C(C)=C/[C@@H]3CC[C@@H](O)[C@H](OC)C3)[C@H](C)[C@@H](O)CC1=O)[C@H](C)C[C@@H]2OC [Ascomycin (FK520)] | 52.9%
CC1(C)CC[C@]2(C(=O)O)CC[C@]3(C)C(=CC[C@@H]4[C@@]5(C)C[C@@H](O)[C@H](O)C(C)(C)[C@@H]5CC[C@]43C)[C@@H]2C1 [Maslinic acid] | 4.45%
C[C@H]1[C@H](C)CC[C@]2(C(=O)O)CC[C@]3(C)C(=CC[C@@H]4[C@@]5(C)C[C@@H](O)[C@H](O)[C@@](C)(CO)[C@@H]5CC[C@]43C)[C@H]12 [Asiatic acid] | -12.2%
